Laboratory results published in paper doi:10.1101/524959.

Chains of the proteins cited; added tags and fusions are not shown.
UniProt Q9HFE8: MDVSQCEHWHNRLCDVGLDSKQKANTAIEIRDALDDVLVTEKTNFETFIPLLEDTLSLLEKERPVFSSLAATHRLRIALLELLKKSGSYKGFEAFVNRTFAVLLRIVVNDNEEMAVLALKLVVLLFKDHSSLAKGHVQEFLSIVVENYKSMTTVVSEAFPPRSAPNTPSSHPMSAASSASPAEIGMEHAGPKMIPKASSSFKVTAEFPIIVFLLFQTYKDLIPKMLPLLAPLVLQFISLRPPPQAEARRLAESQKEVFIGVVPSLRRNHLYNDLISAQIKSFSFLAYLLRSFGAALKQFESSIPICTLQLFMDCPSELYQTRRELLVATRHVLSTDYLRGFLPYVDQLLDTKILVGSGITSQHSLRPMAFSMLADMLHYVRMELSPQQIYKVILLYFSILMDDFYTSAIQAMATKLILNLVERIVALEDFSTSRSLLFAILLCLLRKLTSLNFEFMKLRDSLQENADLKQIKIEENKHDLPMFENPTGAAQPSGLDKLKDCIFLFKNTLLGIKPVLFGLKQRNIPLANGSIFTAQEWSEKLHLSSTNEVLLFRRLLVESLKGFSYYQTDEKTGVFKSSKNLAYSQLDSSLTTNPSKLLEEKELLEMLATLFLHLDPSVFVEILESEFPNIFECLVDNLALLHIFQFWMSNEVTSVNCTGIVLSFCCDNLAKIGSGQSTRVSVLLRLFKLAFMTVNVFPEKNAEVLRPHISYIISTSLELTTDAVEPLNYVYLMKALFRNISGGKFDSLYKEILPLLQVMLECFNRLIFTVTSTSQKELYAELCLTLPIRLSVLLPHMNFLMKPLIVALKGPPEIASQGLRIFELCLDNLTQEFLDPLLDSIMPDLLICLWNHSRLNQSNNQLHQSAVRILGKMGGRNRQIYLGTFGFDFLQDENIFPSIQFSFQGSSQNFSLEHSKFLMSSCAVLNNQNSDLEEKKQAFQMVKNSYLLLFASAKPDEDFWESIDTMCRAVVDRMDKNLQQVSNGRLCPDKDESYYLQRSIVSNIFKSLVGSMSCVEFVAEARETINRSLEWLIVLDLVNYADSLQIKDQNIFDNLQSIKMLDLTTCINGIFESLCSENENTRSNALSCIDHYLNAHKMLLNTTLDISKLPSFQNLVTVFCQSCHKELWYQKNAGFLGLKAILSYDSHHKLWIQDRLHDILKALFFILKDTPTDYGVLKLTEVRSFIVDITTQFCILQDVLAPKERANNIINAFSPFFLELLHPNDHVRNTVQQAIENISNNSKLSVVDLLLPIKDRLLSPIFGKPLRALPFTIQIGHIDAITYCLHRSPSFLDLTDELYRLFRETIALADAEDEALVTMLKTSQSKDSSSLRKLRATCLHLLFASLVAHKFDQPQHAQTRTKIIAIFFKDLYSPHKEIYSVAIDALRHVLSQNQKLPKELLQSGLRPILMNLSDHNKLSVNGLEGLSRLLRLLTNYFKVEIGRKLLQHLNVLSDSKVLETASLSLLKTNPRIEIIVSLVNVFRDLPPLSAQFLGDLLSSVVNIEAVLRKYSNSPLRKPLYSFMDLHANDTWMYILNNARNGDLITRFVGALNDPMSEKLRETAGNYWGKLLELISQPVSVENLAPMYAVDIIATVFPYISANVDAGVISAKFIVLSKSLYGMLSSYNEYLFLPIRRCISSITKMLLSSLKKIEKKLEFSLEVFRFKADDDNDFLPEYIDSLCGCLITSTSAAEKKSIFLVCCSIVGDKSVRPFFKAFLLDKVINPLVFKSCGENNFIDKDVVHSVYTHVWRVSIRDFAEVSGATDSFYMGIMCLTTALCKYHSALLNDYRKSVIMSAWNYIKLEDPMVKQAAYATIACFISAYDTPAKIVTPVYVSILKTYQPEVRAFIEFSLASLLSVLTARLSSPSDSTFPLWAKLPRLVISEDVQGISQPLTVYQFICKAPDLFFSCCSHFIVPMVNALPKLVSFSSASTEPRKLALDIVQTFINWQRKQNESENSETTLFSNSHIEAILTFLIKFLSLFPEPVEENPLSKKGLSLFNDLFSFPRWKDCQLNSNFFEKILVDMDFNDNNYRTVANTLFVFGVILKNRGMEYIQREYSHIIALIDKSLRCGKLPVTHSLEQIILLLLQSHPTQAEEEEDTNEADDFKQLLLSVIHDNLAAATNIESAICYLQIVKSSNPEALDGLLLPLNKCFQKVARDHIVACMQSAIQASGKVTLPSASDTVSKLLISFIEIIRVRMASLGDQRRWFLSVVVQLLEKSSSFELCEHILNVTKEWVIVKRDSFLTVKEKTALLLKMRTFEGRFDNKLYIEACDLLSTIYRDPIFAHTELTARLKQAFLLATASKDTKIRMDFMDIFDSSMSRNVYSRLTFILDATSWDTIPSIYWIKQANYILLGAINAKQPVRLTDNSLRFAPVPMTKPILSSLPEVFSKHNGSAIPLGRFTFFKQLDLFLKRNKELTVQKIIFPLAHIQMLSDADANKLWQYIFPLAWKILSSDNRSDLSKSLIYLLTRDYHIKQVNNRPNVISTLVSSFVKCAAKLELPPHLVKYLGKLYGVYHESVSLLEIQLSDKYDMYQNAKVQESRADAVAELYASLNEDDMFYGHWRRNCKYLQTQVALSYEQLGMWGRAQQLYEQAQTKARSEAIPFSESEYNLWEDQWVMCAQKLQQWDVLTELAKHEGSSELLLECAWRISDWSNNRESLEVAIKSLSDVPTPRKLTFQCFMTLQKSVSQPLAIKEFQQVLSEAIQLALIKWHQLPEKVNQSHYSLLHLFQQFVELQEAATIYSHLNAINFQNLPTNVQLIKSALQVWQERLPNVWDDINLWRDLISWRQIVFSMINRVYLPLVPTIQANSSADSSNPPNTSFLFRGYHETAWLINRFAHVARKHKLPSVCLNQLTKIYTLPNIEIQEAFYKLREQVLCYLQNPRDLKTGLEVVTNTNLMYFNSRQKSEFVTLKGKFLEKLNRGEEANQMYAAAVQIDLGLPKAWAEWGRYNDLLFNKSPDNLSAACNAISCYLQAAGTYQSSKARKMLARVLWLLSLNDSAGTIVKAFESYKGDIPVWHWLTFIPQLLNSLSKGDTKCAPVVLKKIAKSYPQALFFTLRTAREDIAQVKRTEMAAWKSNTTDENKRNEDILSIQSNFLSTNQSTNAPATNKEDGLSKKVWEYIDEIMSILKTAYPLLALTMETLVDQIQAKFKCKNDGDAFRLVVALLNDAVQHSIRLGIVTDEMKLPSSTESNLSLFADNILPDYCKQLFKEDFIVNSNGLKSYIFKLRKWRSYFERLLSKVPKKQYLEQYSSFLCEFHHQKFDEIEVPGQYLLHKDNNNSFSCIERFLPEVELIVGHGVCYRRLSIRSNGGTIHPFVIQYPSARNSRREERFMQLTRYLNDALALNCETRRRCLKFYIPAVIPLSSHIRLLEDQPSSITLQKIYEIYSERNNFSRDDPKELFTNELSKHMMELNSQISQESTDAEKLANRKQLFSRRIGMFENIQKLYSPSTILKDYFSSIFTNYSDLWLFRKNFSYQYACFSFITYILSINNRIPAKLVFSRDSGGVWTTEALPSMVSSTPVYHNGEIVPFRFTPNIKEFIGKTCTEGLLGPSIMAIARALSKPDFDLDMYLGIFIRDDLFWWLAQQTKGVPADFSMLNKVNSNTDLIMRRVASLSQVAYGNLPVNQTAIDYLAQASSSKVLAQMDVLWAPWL

T1: Tti2 (S. pombe) (UniProt O94729)
T1 sequence: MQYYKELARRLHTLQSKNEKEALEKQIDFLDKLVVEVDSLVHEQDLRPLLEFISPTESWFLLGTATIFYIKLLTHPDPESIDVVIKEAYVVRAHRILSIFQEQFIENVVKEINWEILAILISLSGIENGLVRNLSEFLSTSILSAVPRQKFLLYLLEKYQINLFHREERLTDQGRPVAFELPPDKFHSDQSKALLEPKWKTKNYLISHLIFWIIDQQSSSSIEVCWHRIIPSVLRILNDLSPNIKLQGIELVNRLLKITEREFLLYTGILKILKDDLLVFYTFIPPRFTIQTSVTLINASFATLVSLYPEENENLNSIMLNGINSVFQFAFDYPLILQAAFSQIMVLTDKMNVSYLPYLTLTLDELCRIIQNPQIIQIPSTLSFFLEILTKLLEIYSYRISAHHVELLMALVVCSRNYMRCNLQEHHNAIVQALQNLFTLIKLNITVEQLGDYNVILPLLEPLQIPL

T2: Spt20 (S. pombe) (UniProt O14174)
T2 sequence: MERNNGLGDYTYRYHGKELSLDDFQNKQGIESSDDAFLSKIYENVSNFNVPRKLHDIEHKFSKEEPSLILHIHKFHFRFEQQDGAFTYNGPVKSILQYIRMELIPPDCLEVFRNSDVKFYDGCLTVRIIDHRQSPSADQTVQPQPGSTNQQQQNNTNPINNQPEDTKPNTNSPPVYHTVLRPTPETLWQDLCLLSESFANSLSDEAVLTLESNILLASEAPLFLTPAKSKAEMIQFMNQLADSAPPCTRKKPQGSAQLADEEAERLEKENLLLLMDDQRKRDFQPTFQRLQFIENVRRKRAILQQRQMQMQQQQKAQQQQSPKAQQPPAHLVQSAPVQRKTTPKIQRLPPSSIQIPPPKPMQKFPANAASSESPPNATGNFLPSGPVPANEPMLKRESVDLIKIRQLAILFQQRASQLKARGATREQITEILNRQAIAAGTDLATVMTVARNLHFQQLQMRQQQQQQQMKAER

T3: Spt20-300 (S. pombe) (UniProt O14174)
T3 sequence: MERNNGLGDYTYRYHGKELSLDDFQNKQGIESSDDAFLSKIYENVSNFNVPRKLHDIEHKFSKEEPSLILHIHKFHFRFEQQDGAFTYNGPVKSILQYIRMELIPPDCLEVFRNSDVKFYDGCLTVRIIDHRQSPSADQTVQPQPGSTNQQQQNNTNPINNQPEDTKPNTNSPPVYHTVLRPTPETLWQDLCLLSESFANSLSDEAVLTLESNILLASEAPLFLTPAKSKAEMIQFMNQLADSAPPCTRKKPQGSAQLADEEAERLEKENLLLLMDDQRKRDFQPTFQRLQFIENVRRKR

T4: Mst1-TAP (S. pombe) (UniProt O94446)
T4 sequence: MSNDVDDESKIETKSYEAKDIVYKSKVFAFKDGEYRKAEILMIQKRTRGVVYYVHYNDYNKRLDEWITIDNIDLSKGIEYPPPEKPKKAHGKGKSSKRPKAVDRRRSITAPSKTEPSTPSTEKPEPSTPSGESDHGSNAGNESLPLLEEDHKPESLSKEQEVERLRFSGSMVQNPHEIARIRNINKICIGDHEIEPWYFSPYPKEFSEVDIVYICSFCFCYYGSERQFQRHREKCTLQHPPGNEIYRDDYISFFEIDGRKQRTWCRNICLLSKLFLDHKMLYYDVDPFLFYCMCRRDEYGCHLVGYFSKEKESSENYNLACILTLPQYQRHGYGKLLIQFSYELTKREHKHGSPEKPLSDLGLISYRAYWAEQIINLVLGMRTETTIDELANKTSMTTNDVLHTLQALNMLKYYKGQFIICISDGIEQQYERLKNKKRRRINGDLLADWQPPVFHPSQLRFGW

T5: Spt7-TAP (S. pombe) (UniProt P87152)
T5 sequence: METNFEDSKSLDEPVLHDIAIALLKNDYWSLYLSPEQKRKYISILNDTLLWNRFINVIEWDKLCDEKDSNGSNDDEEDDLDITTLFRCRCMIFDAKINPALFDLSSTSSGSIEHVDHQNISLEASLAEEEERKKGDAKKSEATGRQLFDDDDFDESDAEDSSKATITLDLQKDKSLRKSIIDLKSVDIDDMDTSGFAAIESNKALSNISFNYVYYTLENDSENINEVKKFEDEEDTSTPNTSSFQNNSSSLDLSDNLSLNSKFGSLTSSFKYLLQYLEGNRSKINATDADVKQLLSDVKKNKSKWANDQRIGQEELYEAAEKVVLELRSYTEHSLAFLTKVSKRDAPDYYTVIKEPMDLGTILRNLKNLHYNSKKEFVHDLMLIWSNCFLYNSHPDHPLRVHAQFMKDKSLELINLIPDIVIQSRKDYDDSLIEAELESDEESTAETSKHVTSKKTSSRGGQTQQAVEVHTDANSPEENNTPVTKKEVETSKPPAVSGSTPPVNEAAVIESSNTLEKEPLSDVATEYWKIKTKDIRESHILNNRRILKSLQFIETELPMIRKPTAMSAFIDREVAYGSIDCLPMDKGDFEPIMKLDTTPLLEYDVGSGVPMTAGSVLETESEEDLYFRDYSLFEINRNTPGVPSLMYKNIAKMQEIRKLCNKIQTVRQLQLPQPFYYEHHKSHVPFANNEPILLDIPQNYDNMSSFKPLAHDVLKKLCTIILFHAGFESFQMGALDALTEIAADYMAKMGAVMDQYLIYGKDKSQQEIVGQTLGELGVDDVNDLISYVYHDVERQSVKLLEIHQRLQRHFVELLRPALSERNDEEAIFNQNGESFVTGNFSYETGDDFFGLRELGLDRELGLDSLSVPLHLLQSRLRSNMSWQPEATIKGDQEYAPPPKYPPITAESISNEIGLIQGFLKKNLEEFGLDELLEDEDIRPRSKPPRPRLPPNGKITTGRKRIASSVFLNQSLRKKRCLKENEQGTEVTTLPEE


What was measured:
Assay in all cases: affinity purification with mass spectrometry
Tti2 (S. pombe) = target: T1, Tti2 (S. pombe)
Spt20 (S. pombe) = target: T2, Spt20 (S. pombe)
Spt20-300 (S. pombe) = target: T3, Spt20-300 (S. pombe)
Mst1-TAP (S. pombe) = target: T4, Mst1-TAP (S. pombe)
Spt7-TAP (S. pombe) = target: T5, Spt7-TAP (S. pombe)

Row | Molecule | binding (Tti2 (S. pombe)) | binding (Spt7-TAP (S. pombe)) | other results
1 | Spt20 (protein, UniProt O14174 1-473) MERNNGLGDYTYRYHGKELSLDDFQNKQGIESSDDAFLSKIYENVSNFNVPRKLHDIEHKFSKEEPSLILHIHKFHFRFEQQDGAFTYNGPVKSILQYIRMELIPPDCLEVFRNSDVKFYDGCLTVRIIDHRQSPSADQTVQPQPGSTNQQQQNNTNPINNQPEDTKPNTNSPPVYHTVLRPTPETLWQDLCLLSESFANSLSDEAVLTLESNILLASEAPLFLTPAKSKAEMIQFMNQLADSAPPCTRKKPQGSAQLADEEAERLEKENLLLLMDDQRKRDFQPTFQRLQFIENVRRKRAILQQRQMQMQQQQKAQQQQSPKAQQPPAHLVQSAPVQRKTTPKIQRLPPSSIQIPPPKPMQKFPANAASSESPPNATGNFLPSGPVPANEPMLKRESVDLIKIRQLAILFQQRASQLKARGATREQITEILNRQAIAAGTDLATVMTVARNLHFQQLQMRQQQQQQQMKAER |  | binds | 
2 | Spt20-290 (domain or fragment, UniProt O14174 1-290) MERNNGLGDYTYRYHGKELSLDDFQNKQGIESSDDAFLSKIYENVSNFNVPRKLHDIEHKFSKEEPSLILHIHKFHFRFEQQDGAFTYNGPVKSILQYIRMELIPPDCLEVFRNSDVKFYDGCLTVRIIDHRQSPSADQTVQPQPGSTNQQQQNNTNPINNQPEDTKPNTNSPPVYHTVLRPTPETLWQDLCLLSESFANSLSDEAVLTLESNILLASEAPLFLTPAKSKAEMIQFMNQLADSAPPCTRKKPQGSAQLADEEAERLEKENLLLLMDDQRKRDFQPTFQRL |  | binds | 

Continued, in another order:

Row | binding (Tti2 (S. pombe)) | binding (Spt7-TAP (S. pombe)) | Molecule | other results
3 | binds |  | Tra1 (from UniProt Q9HFE8 1-3661) | binding (Spt20 (S. pombe)): binds; binding (Spt20-300 (S. pombe)): binds
4 | binds |  | Tra2 (from UniProt Q10064 1-3655) | binding (Mst1-TAP (S. pombe)): binds
5 |  | binds | Spt20-HITΔ (protein, UniProt O14174) MERNNGLGDYTYRYHGKELSLDDFQNKQGIESSDDAFLSKIYENVSNFNVPRKLHDIEHKFSKEEPSLILHIHKFHFRFEQQDGAFTYNGPVKSILQYIRMELIPPDCLEVFRNSDVKFYDGCLTVRIIDHRQSPSADQTVQPQPGSTNQQQQNNTNPINNQPEDTKPNTNSPPVYHTVLRPTPETLWQDLCLLSESFANSLSDEAVLTLESNILLASEAPLFLTPAKSKAEMIQFMNQLADSAPPCTRKKPQGSAQLADEEAERLEKENLLLLMDDQRKRDFQPTFQRAILQQRQMQMQQQQKAQQQQSPKAQQPPAHLVQSAPVQRKTTPKIQRLPPSSIQIPPPKPMQKFPANAASSESPPNATGNFLPSGPVPANEPMLKRESVDLIKIRQLAILFQQRASQLKARGATREQITEILNRQAIAAGTDLATVMTVARNLHFQQLQMRQQQQQQQMKAER | 
6 |  | binds | Spt20-300 (domain or fragment, UniProt O14174 1-300) MERNNGLGDYTYRYHGKELSLDDFQNKQGIESSDDAFLSKIYENVSNFNVPRKLHDIEHKFSKEEPSLILHIHKFHFRFEQQDGAFTYNGPVKSILQYIRMELIPPDCLEVFRNSDVKFYDGCLTVRIIDHRQSPSADQTVQPQPGSTNQQQQNNTNPINNQPEDTKPNTNSPPVYHTVLRPTPETLWQDLCLLSESFANSLSDEAVLTLESNILLASEAPLFLTPAKSKAEMIQFMNQLADSAPPCTRKKPQGSAQLADEEAERLEKENLLLLMDDQRKRDFQPTFQRLQFIENVRRKR | 

No constants are given. Whether binding was seen depends on the method and setting. In cells and extracts the contact can be indirect. Here binding means that the protein was enriched with, or labelled near, the bait; the list need not be complete.
